According to patent US10487093B2, “Heterocyclic compounds, in particular 2-oxo-4,4,5,5,6,6,7,7-octahydrobenzoxazole derivatives, and their use as antibacterial compounds” (priority 2016, dated 2019):
Some results were stated once for a whole list of compounds, not compound by compound.

What follows are compounds tested on Gram-negative and Gram-positive bacterial strains. Conditions: A. baumannii, E. coli, E. cloacae, P. aeruginosa and H. influenzae.
Format: cell-based

Structure (SMILES) | activity against all strains of A. baumannii, E. coli, E. cloacae, P. aeruginosa and H. influenzae strains tested (in words)
N#Cc1ccc2ccc(=O)n(CCCN[C@H]3CC[C@H]4[C@H](C3)OC(=O)N4c3ccc4c(n3)NC(=O)CO4)c2c1 [Compound 60, 1-(3-{[(3aS,6S,7aS)-2-oxo-3-{3-oxo-2H,3H,4H-pyrido[3,2-b][1,4]oxazin-6-yl}-octahydro-1,3-benzoxazol-6-yl]amino}propyl)-2-oxo-1,2-dihydroquinoline-7-carbonitrile] | excellent activity
COc1ccc2ncc(=O)n(CCN[C@@H]3CC[C@@H]4[C@@H](C3)OC(=O)N4c3ccc4c(n3)NC(=O)CO4)c2c1 [Compound 21, 1-(2-{[(3aR,6R,7aR)-2-oxo-3-{3-oxo-2H,3H,4H-pyrido[3,2-b][1,4]oxazin-6-yl}-octahydro-1,3-benzoxazol-6-yl]amino}ethyl)-7-methoxy-1,2-dihydroquinoxalin-2-one] | excellent activity

Same assay, conditions: S. aureus and S. pneumoniae

Structure (SMILES) | activity against the Gram-positive strains S. aureus and S. pneumoniae (in words)
COc1ccc2ccc(=O)n(CCN[C@H]3CC[C@H]4[C@H](C3)OC(=O)N4c3ccc4c(n3)NC(=O)CO4)c2n1 [Compound 29, 1-(2-{[(3aS,6S,7aS)-2-oxo-3-{3-oxo-2H,3H,4H-pyrido[3,2-b][1,4]oxazin-6-yl}-octahydro-1,3-benzoxazol-6-yl]amino}ethyl)-7-methoxy-1,2-dihydro-1,8-naphthyridin-2-one] | excellent activity
O=C1COc2ccc(N3C(=O)O[C@@H]4C[C@@H](NCCn5c(=O)cnc6cc(F)c(F)cc65)CC[C@@H]43)nc2N1 [Compound 22, 1-(2-{[(3aS,6S,7aR)-2-oxo-3-{3-oxo-2H,3H,4H-pyrido[3,2-b][1,4]oxazin-6-yl}-octahydro-1,3-benzoxazol-6-yl]amino}ethyl)-6,7-difluoro-1,2-dihydroquinoxalin-2-one] | excellent activity
N#Cc1ccc2ccc(=O)n(CCCN[C@H]3CC[C@H]4[C@H](C3)OC(=O)N4c3ccc4c(n3)NC(=O)CO4)c2c1 [Compound 60, 1-(3-{[(3aS,6S,7aS)-2-oxo-3-{3-oxo-2H,3H,4H-pyrido[3,2-b][1,4]oxazin-6-yl}-octahydro-1,3-benzoxazol-6-yl]amino}propyl)-2-oxo-1,2-dihydroquinoline-7-carbonitrile] | excellent activity
COC(=O)c1ccc2ccc(=O)n(CCN[C@@H]3CC[C@@H]4[C@@H](C3)OC(=O)N4c3ccc4c(n3)NC(=O)CO4)c2c1 [Compound 36, methyl 1-(2-{[(3aR,6R,7aR)-2-oxo-3-{3-oxo-2H,3H,4H-pyrido[3,2-b][1,4]oxazin-6-yl}-octahydro-1,3-benzoxazol-6-yl]amino}ethyl)-2-oxo-1,2-dihydroquinoline-7-carboxylate] | excellent activity
O=C1COc2ccc(N3C(=O)O[C@@H]4C[C@@H](NCCn5c(=O)ccc6ccc(Oc7cccnc7)nc65)CC[C@@H]43)nc2N1 [Compound 12, 1-(2-{[(3aS,6S,7aR)-2-oxo-3-{3-oxo-2H,3H,4H-pyrido[3,2-b][1,4]oxazin-6-yl}-octahydro-1,3-benzoxazol-6-yl]amino}ethyl)-7-(pyridin-3-yloxy)-1,2-dihydro-1,8-naphthyridin-2-one] | excellent activity
COc1cnc2ccc(=O)n(CCN[C@H]3CC[C@H]4[C@H](C3)OC(=O)N4c3ccc4c(n3)NC(=O)CO4)c2c1 [Compound 42, 7-methoxy-1-{2-[(2-oxo-3-{3-oxo-2H,3H,4H-pyrido[3,2-b][1,4]oxazin-6-yl}-octahydro-1,3-benzoxazol-6-yl)amino]ethyl}-1,2-dihydro-1,5-naphthyridin-2-one] | excellent activity
N#Cc1ccc2ncc(=O)n(CCN[C@H]3CC[C@H]4[C@H](C3)OC(=O)N4c3ccc4c(n3)NC(=O)CO4)c2c1 [Compound 64, 4-(2-{[(3aS,6S,7aS)-2-oxo-3-{3-oxo-2H,3H,4H-pyrido[3,2-b][1,4]oxazin-6-yl}-octahydro-1,3-benzoxazol-6-yl]amino}ethyl)-3-oxo-3,4-dihydroquinoxaline-6-carbonitrile] | excellent activity
O=C1COc2ccc(N3C(=O)O[C@H]4C[C@@H](NCCn5c(=O)cnc6ccc(F)cc65)CC[C@@H]43)nc2N1 [Compound 84, 1-(2-{[(3aS,6S,7aS)-2-oxo-3-{3-oxo-2H,3H,4H-pyrido[3,2-b][1,4]oxazin-6-yl}-octahydro-1,3-benzoxazol-6-yl]amino}ethyl)-7-fluoro-1,2-dihydroquinoxalin-2-one] | excellent activity
O=C1COc2ccc(N3C(=O)O[C@H]4C[C@@H](NCCCn5c(=O)cnc6cc(F)c(F)cc65)CC[C@@H]43)nc2N1 [Compound 90, 1-(3-{[(3aS,6S,7aS)-2-oxo-3-{3-oxo-2H,3H,4H-pyrido[3,2-b][1,4]oxazin-6-yl}-octahydro-1,3-benzoxazol-6-yl]amino}propyl)-6,7-difluoro-1,2-dihydroquinoxalin-2-one] | excellent activity
CN(CCn1c(=O)ccc2ccc(OCCN)cc21)[C@@H]1CC[C@@H]2[C@@H](C1)OC(=O)N2c1ccc2c(n1)NC(=O)CO2 [Compound 54] | excellent activity
COc1cnc2ccc(=O)n(CCN(C)[C@H]3CC[C@H]4[C@@H](C3)OC(=O)N4c3ccc4c(n3)NC(=O)CO4)c2c1 [Compound 51, 1-(2-{[(3aS,6S,7aR)-2-oxo-3-{3-oxo-2H,3H,4H-pyrido[3,2-b][1,4]oxazin-6-yl}-octahydro-1,3-benzoxazol-6-yl](methyl)amino}ethyl)-7-methoxy-1,2-dihydro-1,5-naphthyridin-2-one] | excellent activity
COc1ccc2ccc(=O)n(CCN[C@@H]3CC[C@@H]4[C@@H](C3)OC(=O)N4c3ccc4c(n3)NC(=O)CO4)c2n1 [Compound 1, 1-(2-{[(3aR,6R,7aR)-2-oxo-3-{3-oxo-2H,3H,4H-pyrido[3,2-b][1,4]oxazin-6-yl}-octahydro-1,3-benzoxazol-6-yl]amino}ethyl)-7-methoxy-1,2-dihydro-1,8-naphthyridin-2-one] | excellent activity
N#Cc1ccc2ncc(=O)n(CCN[C@H]3CC[C@H]4[C@@H](C3)OC(=O)N4c3ccc4c(n3)NC(=O)CO4)c2c1 [Compound 31, 4-(2-{[(3aS,6S,7aR)-2-oxo-3-{3-oxo-2H,3H,4H-pyrido[3,2-b][1,4]oxazin-6-yl}-octahydro-1,3-benzoxazol-6-yl]amino}ethyl)-3-oxo-3,4-dihydroquinoxaline-6-carbonitrile] | excellent activity
CCCOc1ccc2ccc(=O)n(CCN[C@H]3CC[C@H]4[C@H](C3)OC(=O)N4c3ccc4c(n3)NC(=O)CO4)c2c1 [Compound 91, 1-(2-{[(3aS,6S,7aS)-2-oxo-3-{3-oxo-2H,3H,4H-pyrido[3,2-b][1,4]oxazin-6-yl}-octahydro-1,3-benzoxazol-6-yl]amino}ethyl)-7-propoxy-1,2-dihydroquinolin-2-one] | excellent activity
COc1ccc2ccc(=O)n(CCCN[C@H]3CC[C@H]4[C@H](C3)OC(=O)N4c3ccc4c(n3)NC(=O)CS4)c2n1 [Compound 85, 1-(3-{[(3aS,6S,7aS)-2-oxo-3-{3-oxo-2H,3H,4H-pyrido[3,2-b][1,4]thiazin-6-yl}-octahydro-1,3-benzoxazol-6-yl]amino}propyl)-7-methoxy-1,2-dihydro-1,8-naphthyridin-2-one] | excellent activity
